Reference: paper PMC7956269
Results are given in words; binding and its absence hold for the method and conditions named. In cells and extracts the contact can be indirect. Here binding means that the protein was enriched with, or labelled near, the bait; the list need not be complete.

B1: Nop58 (protein, UniProt Q9Y2X3 1-529)
chain: MLVLFETSVGYAIFKVLNEKKLQEVDSLWKEFETPEKANKIVKLKHFEKFQDTAEALAAFTALMEGKINKQLKKVLKKIVKEAHEPLAVADAKLGGVIKEKLNLSCIHSPVVNELMRGIRSQMDGLIPGVEPREMAAMCLGLAHSLSRYRLKFSADKVDTMIVQAISLLDDLDKELNNYIMRCREWYGWHFPELGKIISDNLTYCKCLQKVGDRKNYASAKLSELLPEEVEAEVKAAAEISMGTEVSEEDICNILHLCTQVIEISEYRTQLYEYLQNRMMAIAPNVTVMVGELVGARLIAHAGSLLNLAKHAASTVQILGAEKALFRALKSRRDTPKYGLIYHASLVGQTSPKHKGKISRMLAAKTVLAIRYDAFGEDSSSAMGVENRAKLEARLRTLEDRGIRKISGTGKALAKTEKYEHKSEVKTYDPSGDSTLPTCSKKRKIEQVDKEDEITEKKAKKAKIKVKVEEEEEEKVAEEEETSVKKKKKRGKKKHIKEEPLSEEEPCTSTAIASPEKKKKKKKKRENED
B2: Prpf3 (protein, UniProt O43395 1-683)
chain: MALSKRELDELKPWIEKTVKRVLGFSEPTVVTAALNCVGKGMDKKKAADHLKPFLDDSTLRFVDKLFEAVEEGRSSRHSKSSSDRSRKRELKEVFGDDSEISKESSGVKKRRIPRFEEVEEEPEVIPGPPSESPGMLTKLQIKQMMEAATRQIEERKKQLSFISPPTPQPKTPSSSQPERLPIGNTIQPSQAATFMNDAIEKARKAAELQARIQAQLALKPGLIGNANMVGLANLHAMGIAPPKVELKDQTKPTPLILDEQGRTVDATGKEIELTHRMPTLKANIRAVKREQFKQQLKEKPSEDMESNTFFDPRVSIAPSQRQRRTFKFHDKGKFEKIAQRLRTKAQLEKLQAEISQAARKTGIHTSTRLALIAPKKELKEGDIPEIEWWDSYIIPNGFDLTEENPKREDYFGITNLVEHPAQLNPPVDNDTPVTLGVYLTKKEQKKLRRQTRREAQKELQEKVRLGLMPPPEPKVRISNLMRVLGTEAVQDPTKVEAHVRAQMAKRQKAHEEANAARKLTAEQRKVKKIKKLKEDISQGVHISVYRVRNLSNPAKKFKIEANAGQLYLTGVVVLHKDVNVVVVEGGPKAQKKFKRLMLHRIKWDEQTSNTKGDDDEESDEEAVKKTNKCVLVWEGTAKDRSFGEMKFKQCPTENMAREHFKKHGAEHYWDLALSESVLESTD

Target: Biotin-FOXC1 (mouse) (UniProt Q61572)
Experiment: affinity purification with mass spectrometry; streptavidin-agarose precipitation of biotinylated FOXC1 from nuclear extract of stable HEK293T cells (293T-Biotin-FOXC1); IP350 buffer (350 mM NaCl, 20 mM Tris-HCl pH 7.5, 0.5% NP40, 1 mM EDTA, 10% glycerin); SDS-PAGE, LC-ESI-MS/MS; proteins of the 293T-Biotin control deducted

Binder	binding
B1	binds
B2	binds
